Legend:
[1] = tested on: L. donovani (MHOM/ET/67/L82); assay: Intracellular amastigote susceptibility assay (primary peritoneal mouse macrophages); assay type: cell-based; details: selectivity index (CC50/IC50)
Protocol: (§1) To obtain primary peritoneal macrophages, Swiss mice were stimulated by intraperitoneal injection of 1 mL 2% starch in PBS 48 h prior to cell collection. Animals were euthanized with a CO2 overdose and upon removal of the skin, 10 mL of RPMI-1640 (Life Technologies) was injected into the peritoneal cavity to collect the macrophages that were then seeded into 96-well plates at a final concentration of 30,000 cells/well in 100 µL of RPMI-1640 macrophage medium, supplemented with 5% iFCS, 2% penicillin/streptomycin and 1% L-glutamine (Life technologies). After 24 h, the cells were infected with spleen derived L. infantum (MHOM/MA(BE)/67/ITMAP263) or L. donovani (MHOM/ET/67/L82) amastigotes obtained from heavily infected donor hamsters. The amastigotes were purified using two centrifugation steps and diluted to obtain an infection ratio of 5:1 in RPMI-1640 cell culture medium. After incubation for 2 h, compound dilutions were added. Drug activity was evaluated after a 96-h incubation period without washing of the cells and without renewal of the drugged culture medium. Cells were stained with Giemsa for microscopic evaluation of cellular amastigote burdens. Percentage reduction compared to the burdens in the infected non-treated control wells was used as a measure for drug activity.

[2] = tested on: L. infantum (MHOM/MA/67/ITMAP263); assay: as above; assay type: cell-based; details: selectivity index (CC50/IC50)
Protocol: as §1

Structure (SMILES)	SI [1]	SI [2]
COc1cc(C#N)ccc1-c1c(C)[nH]c2nc(N)nc(C)c12 [Compound C1, 4-(2-amino-4,6-dimethyl-7H-pyrrolo[2,3-d]pyrimidin-5-yl)-3-methoxybenzonitrile]	>63	>74
COc1nc(OCC(F)(F)F)cnc1-c1c(C)[nH]c2nc(N)nc(C)c12 [Compound C3, 5-[3-methoxy-5-(2,2,2-trifluoroethoxy)pyrazin-2-yl]-4,6-dimethyl-7H-pyrrolo[2,3-d]pyrimidin-2-amine]	>51	>40
Cc1[nH]c2nc(N)nc(C)c2c1-c1ccc(C#N)c2c1OCO2 [Compound C4, 7-(2-amino-4,6-dimethyl-7H-pyrrolo[2,3-d]pyrimidin-5-yl)-1,3-benzodioxole-4-carbonitrile]	>360	>417

Source: EP4341264B1, “PYRROLOPIRIMIDINE DERIVATIVES AND THEIR USE IN THE TREATMENT OF LEISHMANIASIS” (Drugs for Neglected Diseases Initiative, priority 2021, dated 2022)
